Results on two substances are retold here after article PMC9141077.

Chains of the proteins cited; added tags and fusions are not shown. Lines headed by an entry give the natural chain unless they say otherwise; changes in a name come on top. Residues count along the entry.
UniProt P13612, residues 34-1032: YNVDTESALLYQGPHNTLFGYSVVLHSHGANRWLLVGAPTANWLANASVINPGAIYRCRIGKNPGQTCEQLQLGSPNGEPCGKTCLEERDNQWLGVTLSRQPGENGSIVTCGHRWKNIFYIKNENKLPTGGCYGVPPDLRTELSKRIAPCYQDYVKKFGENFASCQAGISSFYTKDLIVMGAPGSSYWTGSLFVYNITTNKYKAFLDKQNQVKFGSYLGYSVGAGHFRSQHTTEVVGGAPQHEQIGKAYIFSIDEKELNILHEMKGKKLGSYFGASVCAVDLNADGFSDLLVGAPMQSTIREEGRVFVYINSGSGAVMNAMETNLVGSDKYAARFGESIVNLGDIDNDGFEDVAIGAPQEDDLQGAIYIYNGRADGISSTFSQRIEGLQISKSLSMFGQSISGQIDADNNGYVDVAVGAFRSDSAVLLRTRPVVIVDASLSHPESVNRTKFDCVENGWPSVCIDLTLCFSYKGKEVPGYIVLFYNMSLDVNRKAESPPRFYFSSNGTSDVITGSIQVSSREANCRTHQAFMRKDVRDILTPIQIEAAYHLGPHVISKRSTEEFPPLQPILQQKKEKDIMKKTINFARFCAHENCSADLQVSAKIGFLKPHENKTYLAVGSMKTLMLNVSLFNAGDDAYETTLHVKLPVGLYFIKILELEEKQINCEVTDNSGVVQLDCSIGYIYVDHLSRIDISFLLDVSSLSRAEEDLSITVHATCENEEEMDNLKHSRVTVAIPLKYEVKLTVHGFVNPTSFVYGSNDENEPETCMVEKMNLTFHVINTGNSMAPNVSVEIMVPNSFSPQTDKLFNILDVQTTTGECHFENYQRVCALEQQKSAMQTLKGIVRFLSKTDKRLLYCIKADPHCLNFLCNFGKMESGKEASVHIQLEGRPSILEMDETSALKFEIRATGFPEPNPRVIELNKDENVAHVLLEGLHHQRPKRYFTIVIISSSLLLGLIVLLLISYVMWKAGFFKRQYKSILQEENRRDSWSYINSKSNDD
UniProt P05556: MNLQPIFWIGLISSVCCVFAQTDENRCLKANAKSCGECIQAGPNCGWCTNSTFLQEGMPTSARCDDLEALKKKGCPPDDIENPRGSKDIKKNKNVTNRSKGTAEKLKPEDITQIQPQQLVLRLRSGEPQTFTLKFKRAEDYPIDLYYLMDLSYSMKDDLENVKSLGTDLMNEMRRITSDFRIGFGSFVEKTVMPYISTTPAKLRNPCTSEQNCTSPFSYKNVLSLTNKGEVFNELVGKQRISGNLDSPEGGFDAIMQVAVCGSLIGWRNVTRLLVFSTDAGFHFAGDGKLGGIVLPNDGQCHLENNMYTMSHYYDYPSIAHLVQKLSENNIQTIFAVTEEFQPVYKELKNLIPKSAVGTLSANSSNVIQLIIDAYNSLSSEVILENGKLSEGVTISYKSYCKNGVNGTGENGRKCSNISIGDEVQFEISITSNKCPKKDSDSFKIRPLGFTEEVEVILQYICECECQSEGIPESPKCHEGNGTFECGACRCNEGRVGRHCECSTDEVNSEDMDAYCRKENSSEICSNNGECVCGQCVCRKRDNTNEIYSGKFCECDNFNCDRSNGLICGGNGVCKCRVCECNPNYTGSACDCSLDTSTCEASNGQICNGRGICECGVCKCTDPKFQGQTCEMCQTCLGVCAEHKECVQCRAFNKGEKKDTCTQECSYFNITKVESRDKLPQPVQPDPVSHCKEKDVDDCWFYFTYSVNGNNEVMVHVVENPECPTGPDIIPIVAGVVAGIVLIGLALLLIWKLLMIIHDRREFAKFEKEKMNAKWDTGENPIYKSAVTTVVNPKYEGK

This assay deals with Mucin-16 (MUC16) bearing fully branched O-glycans, as in wild-type (WT) PDAC cells (human (endogenous in T3M4 and Capan-2)) (UniProt Q8WXI7). Kind of assay: co-IP; 500 µg lysate of T3M4 and Capan-2 (WT and SC) cells in non-denaturing RIPA buffer; IP with mouse anti-MUC16 (5 µg/mL) or mouse IgG overnight at 4 °C, protein G Sepharose beads 2 h at room temperature; immunoblot for integrins.

Results are given in words; binding and its absence hold for the method and conditions named. Binding seen in cells or lysates may run through a third protein. Some results given as binding are weak or reduced against the parent protein; the word gives no strength.

On to “integrin α4 (from UniProt P13612 34-1032) (receptor)”, for which the binding result is given as “binds”.

“integrin β1 (from UniProt P05556 21-798) (receptor)”: the binding result is “binds”.
